# PubChem BioAssay AID504793, Drosophila RNAi Screening Center | 2011
# Assay: 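Knock-downs allowing continued mitosis even though DNA is damaged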 (primary screen)
# Cells: Drosophila S2R+ cells
# Reagents: long dsRNA against Drosophila genes, about 0.25 µg dsRNA per well
# Duration: 4 days of dsRNA, then 4 hours of drug before read-out
# Challenge: doxorubicin 0.5 µM for 4 hours to cause double-strand breaks, in cells also given a low, harmless dose of dsRNA against nbs to sensitise the assay
# Measured: 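Per-well count of mitotic cells stained for phospho-histone H3 after doxorubicin exposure, used as mitotic index; counts are raw and not normalised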
# Reading the numbers: mitotic cells: higher = more cells in mitosis, weaker G2 arrest
# Hit rule: 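Genes are called active only when high mitotic counts were reproduced with independent dsRNAs and mitosis was checked for delay without damage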
# Calls: active = confirmed in follow-up tests; inactive = not confirmed
# The screen tested about 23,000 reagents; shown is a random part of those with a known target gene and a result. Over the whole deposit, 62 (0.27%) got an active call. 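Calls come from follow-up tests whose scores are not deposited, so confirmed genes may have low counts here; counts are not normalised per plate.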 The raw values are shown without normalisation. Names joined by + are all predicted targets of the reagent. No sequences are given here.
target gene,dsRNA,"mitotic cells, replicate 1",activity call
Irbp (GeneID 117419),DRSC17007,3,inactive
Irbp (GeneID 117419),DRSC23317,14,inactive
Irbp (GeneID 117419),DRSC29386,3,inactive
CG8460 (GeneID 34115),DRSC03090,1,inactive
CG14232 (GeneID 32983),DRSC19588,4,inactive
CG14232 (GeneID 32983),DRSC27714,8,inactive
bun (GeneID 34665),DRSC01255,6,inactive
bun (GeneID 34665),DRSC23041,4,inactive
bun (GeneID 34665),DRSC25816,3,inactive
knk (GeneID 47137),DRSC15993,9,inactive
EndoA (GeneID 42265),DRSC14775,10,inactive
EndoA (GeneID 42265),DRSC29646,5,inactive
Ppa (GeneID 37602),DRSC04598,5,inactive
Ppa (GeneID 37602),DRSC28700,6,inactive
CG5846 (GeneID 34326),DRSC02904,4,inactive
Orp8 (GeneID 42412),DRSC15110,13,inactive
Orp8 (GeneID 42412),DRSC15712,5,inactive
Orp8 (GeneID 42412),DRSC28849,5,inactive
MED15 (GeneID 33223),DRSC00267,6,inactive
MED15 (GeneID 33223),DRSC23615,6,inactive
CG13833 (GeneID 42718),DRSC14683,5,inactive
CG18449 (GeneID 35810),DRSC06754,6,inactive
Alp2 (GeneID 37539),DRSC04354,14,inactive
Alp2 (GeneID 37539),DRSC26474,8,inactive
ppk27 (GeneID 38440),DRSC08168,7,inactive
ppk27 (GeneID 38440),DRSC22211,3,inactive
snoRNA:Me28S-C3420b + RpS11,DRSC07396,8,inactive
kek1 (GeneID 34688),DRSC03551,6,inactive
obst-I (GeneID 317966),DRSC08339,7,inactive
PsGEF (GeneID 31224),DRSC18596,20,inactive
PsGEF (GeneID 31224),DRSC27549,11,inactive
DUBAI (GeneID 36361),DRSC07281,4,inactive
CG8641 (GeneID 38771),DRSC11028,,inactive
ppk21 (GeneID 43485),DRSC14466,14,inactive
CG15099 (GeneID 37176),DRSC06528,7,inactive
CG4199 (GeneID 31174),DRSC18519,5,inactive
CG4199 (GeneID 31174),DRSC21314,17,inactive
CG4199 (GeneID 31174),DRSC27951,6,inactive
dnt (GeneID 35207),DRSC03522,5,inactive
dnt (GeneID 35207),DRSC25886,2,inactive
RpL23 (GeneID 37628),DRSC04648,5,inactive
Spn27A (GeneID 45815),DRSC03608,4,inactive
Vps25 (GeneID 35847),DRSC06486,5,inactive
CG7017 (GeneID 40213),DRSC10762,6,inactive
Ir21a (GeneID 33157),DRSC00528,5,inactive

Part of the list above, reformatted.
| target gene | dsRNA | mitotic cells, replicate 1 | activity call |
| --- | --- | --- | --- |
| DUBAI (GeneID 36361) | DRSC07281 | 4 | inactive |
| CG8641 (GeneID 38771) | DRSC11028 | – | inactive |
